Source: PubChem BioAssay AID256 (DTP/NCI, 2004)
The list shows only some results of the screen, not a fair sample: it is rich in T/C values a quarter to a half above the control, in often repeated tests (any T/C) and in doses without a T/C. Other doses and runs of a compound stand elsewhere. T/C is the treated group as % of the vehicle group. Some entries give survivors of the animals treated and no T/C: the source files T/C as zero there, which appears to mark a toxic dose or a test without result, not a measured value. Some doses without a T/C left all or most animals alive at the check, yet need not have been tolerated: the source hardly ever lists a survival T/C far under the control, and the zero likely stands for such cases as well. Survivors were counted at the toxicity check, usually on the fifth day, unless a day is given; later deaths do not show. Schedules are NCI's codes, read here as Q, the interval in days (D) or hours (H), X, the number of doses. Some entries hold several experiments; the results are listed from low to high. Where survival is the endpoint, this PubChem deposit counts one and a half times the control or more as active, and values a quarter to a half above the control carry no call in these data; other NCI protocols may use other cut-offs. Some T/C values carry the count of animals alive at the toxicity check (mostly the fifth day); without a count, all were alive then.

Test system: CD2F1 mice, L1210 leukemia ip, survival T/C
Assay: NCI In Vivo Anticancer Drug Screen. Data for tumor model L1210 Leukemia (intraperitoneal) in CD2F1 (CDF1) mice
Conditions: T/C endpoint: mean survival time, higher T/C = longer survival
In short: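 Antitumor effect is scored in animals hosting a serially transplanted tumor. Values compare compound-dosed animals against vehicle-only controls as a simple quotient.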

[1] = dose: 64.0 mg/kg/injection, schedule: Q01DX009 (ip), vehicle: saline
[2] = dose: 64.0 mg/kg/injection, schedule: Q04DX003 (ip), vehicle: saline with Tween-80
[3] = dose: 128.0 mg/kg/injection, schedule: Q01DX009 (ip), vehicle: Klucel (hydroxypropylcellulose) (HPC)
[4] = dose: 128.0 mg/kg/injection, schedule: Q04DX003 (ip), vehicle: saline with Tween-80
[5] = dose: 256.0 mg/kg/injection, schedule: Q01DX001 (ip), vehicle: saline with Tween-80
[6] = dose: 400.0 mg/kg/injection, schedule: Q04DX002 (ip), vehicle: saline

With CCOC(=O)C(CC(C)C)NC(=O)C(Cc1ccc(N(CCCl)CCCl)cc1)NC(C)=O (configuration not stated) the T/C (dose: 32.0 mg/kg/injection, schedule: Q01DX009 (ip), vehicle: Klucel (hydroxypropylcellulose) (HPC)) was 130 % of control, the T/C (dose: 32.0 mg/kg/injection, schedule: Q01DX009 (ip), vehicle: saline, evaluated on day 30) was 128 % of control and the T/C (dose: 32.0 mg/kg/injection, schedule: Q01DX009 (ip), vehicle: saline, evaluated on day 45) was 138 % of control. The T/C (dose: 32.0 mg/kg/injection, schedule: Q04DX003 (ip), vehicle: saline with Tween-80) was 127 % of control, the T/C (dose: 64.0 mg/kg/injection, schedule: Q01DX001 (ip), vehicle: saline with Tween-80) was 132 % of control and the T/C (dose: 64.0 mg/kg/injection, schedule: Q01DX009 (ip), vehicle: Klucel (hydroxypropylcellulose) (HPC)) was 125 % of control. For the same molecule, the T/C [1] was 141 % of control, the survivor count [1] was 3 of 6 and the T/C [2] was 133 % of control [5 of 6 alive]. The survivor count [2] was 6 of 6, the T/C (dose: 64.0 mg/kg/injection, schedule: Q04DX003 (ip), vehicle: saline) was 133 % of control and the T/C (dose: 128.0 mg/kg/injection, schedule: Q01DX001 (ip), vehicle: saline with Tween-80) was 140 % of control. For the same molecule, the T/C (dose: 128.0 mg/kg/injection, schedule: Q01DX001 (ip), vehicle: saline) was 138 % of control, the T/C [3] was 130 % of control and the survivor count [3] was 1 of 6. The T/C [4] was 127 and 142 % of control, the survivor count [4] was 4 of 6 and the T/C [5] was 132 % of control. For the same molecule, the survivor count [5] was 2 of 6, the survivor count (dose: 256.0 mg/kg/injection, schedule: Q01DX009 (ip), vehicle: saline) was 4 of 10 and the survivor count (dose: 256.0 mg/kg/injection, schedule: Q04DX003 (ip), vehicle: saline with Tween-80) was 2 of 6. The survivor count (dose: 512.0 mg/kg/injection, schedule: Q01DX001 (ip), vehicle: saline) was 3 of 10, the survivor count (dose: 512.0 mg/kg/injection, schedule: Q04DX003 (ip), vehicle: saline with Tween-80) was 0 of 6 and the survivor count (dose: 512.0 mg/kg/injection, schedule: Q04DX003 (ip), vehicle: saline) was 3 of 10. For the same molecule, the survivor count (dose: 1024.0 mg/kg/injection, schedule: Q01DX001 (ip), vehicle: saline) was 1 of 10.
For CC1CCCN(N=Nc2ccc(Br)cc2-c2nc(N)c3cc(Br)ccc3n2)C1 (configuration not stated), the survivor count (dose: 200.0 mg/kg/injection, schedule: Q01DX001 (ip), vehicle: Klucel (hydroxypropylcellulose) (HPC)) was 3 of 3.
With O=C(O)c1ccccc1.[Cu+2] the survivor count (dose: 100.0 mg/kg/injection, schedule: Q01DX001 (ip), vehicle: saline) was 0 of 6, the survivor count (dose: 200.0 mg/kg/injection, schedule: Q01DX001 (ip), vehicle: saline) was 0 of 6 and the survivor count (dose: 400.0 mg/kg/injection, schedule: Q01DX001 (ip), vehicle: saline) was 0 of 6.
O=c1c2cccc3cccc(c32)c2nc3ccccc3n12 was tested, and the survivor count (dose: 50.0 mg/kg/injection, schedule: Q01DX009 (ip), vehicle: saline with Tween-80) was 2 of 6, the survivor count (dose: 100.0 mg/kg/injection, schedule: Q01DX009 (ip), vehicle: saline with Tween-80) was 0 of 6 and the survivor count (dose: 200.0 mg/kg/injection, schedule: Q01DX009 (ip), vehicle: saline with Tween-80) was 0 of 6.
In the case of COc1ccc(OC)c(OC)c1CC(C)N (configuration not stated), the survivor count (dose: 200.0 mg/kg/injection, schedule: Q04DX002 (ip), vehicle: saline) is reported as 0 of 3 and the survivor count [6] is reported as 0 of 3.
CN(Cc1cnc2nc(N)nc(N)c2n1)c1ccc(C(=O)NC(CCC(=O)NCc2ccccc2)C(=O)O)cc1 (configuration not stated) was tested, and the T/C (dose: 25.0 mg/kg/injection, schedule: Q01DX009 (ip), vehicle: sodium bicarbonate) was 125 % of control, the T/C (dose: 50.0 mg/kg/injection, schedule: Q01DX009 (ip), vehicle: sodium bicarbonate) was 128 % of control and the T/C (dose: 100.0 mg/kg/injection, schedule: Q01DX009 (ip), vehicle: sodium bicarbonate) was 133 % of control.
For Nc1nc(NNC(=O)c2ccccc2)c2nonc2n1, the survivor count (dose: 100.0 mg/kg/injection, schedule: Q01DX005 (ip), vehicle: other) was 3 of 3.
In the case of Oc1ccc(Cl)cc1Cn1ccnc1, the survivor count [6] is reported as 0 of 3 and 1 of 6.
With CC#CCOCC(O)CO (configuration not stated) the survivor count (dose: 400.0 mg/kg/injection, schedule: Q01DX009 (ip), vehicle: water) was 0 of 6.
In the case of Cc1ccc(S(=O)(=O)OC2CCCCCCCCCCC2=O)cc1 (configuration not stated), the survivor count (dose: 200.0 mg/kg/injection, schedule: Q04DX003 (ip), vehicle: other) is reported as 3 of 3.
CCN(CC)N=Nc1ccccc1 was tested, and the survivor count (dose: 150.0 mg/kg/injection, schedule: Q01DX001 (ip), vehicle: saline) was 3 of 6 and the survivor count (dose: 300.0 mg/kg/injection, schedule: Q01DX001 (ip), vehicle: saline) was 0 of 6.
C/C(=C\Cl)COC(C)(C)C was tested, and the survivor count (dose: 400.0 mg/kg/injection, schedule: Q04DX003 (ip), vehicle: acetone) was 0 of 6.
For O=C(C=C(C(F)(F)Cl)C(F)(F)Cl)c1cccs1, the survivor count (dose: 100.0 mg/kg/injection, schedule: Q04DX003 (ip), vehicle: saline with Tween-80) was 0 of 6, the survivor count (dose: 200.0 mg/kg/injection, schedule: Q04DX003 (ip), vehicle: saline with Tween-80) was 0 of 6 and the survivor count (dose: 400.0 mg/kg/injection, schedule: Q04DX003 (ip), vehicle: saline with Tween-80) was 0 of 6.
